# Record: PubChem BioAssay AID1259308 (NCATS, 2017)
# Purpose: 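Knock-downs that increase output of a recombinant reporter protein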 (primary screen)
# Cell system: human HEK293 embryonic kidney cells stably expressing firefly luciferase (HEK-CMV-Luc2-Hygro)
# Knock-down reagent: single siRNA against human genes, 0.8 pmol siRNA per well
# Time to read-out: 72 h
# Read-out: 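Reporter luminescence and viable-cell signal on separate replicate plates, given as percent of non-targeting control and median/MAD z-scores, plus per-cell luciferase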
# Scale: total luciferase, z-score and total luciferase, % of control: higher = more reporter protein produced; luciferase per cell, z-score: higher = more reporter output per viable cell; viable cells, % of control: higher = more viable cells
# Active means: 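An siRNA counts as active if its total luciferase robust z-score exceeds 3; genes with two or more such siRNAs out of three were retested with fresh siRNAs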
# Meaning of the calls: active = raised luciferase; inactive = no rise
# The whole screen tested about 59,000 reagents; below is a random part of them. About 1,510 of all reagents (2.6%) were called active. 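Calls use total luciferase alone and ignore viability, so some active siRNAs may act by altering cell number.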 The numbers tell different reagents against one gene apart. No sequences are given here.
target,siRNA no.,"total luciferase, z-score","total luciferase, % of control","luciferase per cell, z-score","viable cells, % of control",Outcome
VCPIP1 (GeneID 80124),1,0.7,95.8,0.527,93.2,inactive
VCPIP1 (GeneID 80124),2,-1.61,49.8,-1.42,81,inactive
VCPIP1 (GeneID 80124),3,0.0575,83,-0.595,109,inactive
ARHGAP35 (GeneID 2909),1,0.895,99.7,0.43,99.5,inactive
ARHGAP35 (GeneID 2909),2,0.372,89.3,0.107,97,inactive
ARHGAP35 (GeneID 2909),3,-0.65,69,-0.747,93.8,inactive
VSTM1 (GeneID 284415),1,1.21,106,1.17,87,inactive
VSTM1 (GeneID 284415),2,0.401,89.9,0.395,90.5,inactive
VSTM1 (GeneID 284415),3,-1.48,52.5,-1.23,81.1,inactive
MASP2 (GeneID 10747),1,2.07,123,1.51,92.5,inactive
MASP2 (GeneID 10747),2,-1.35,55,-1.37,88.1,inactive
MASP2 (GeneID 10747),3,0.0686,83.3,-0.523,107,inactive
UBTD1 (GeneID 80019),1,-1.96,43,-2.6,95.3,inactive
UBTD1 (GeneID 80019),2,-1.05,61.1,-0.786,83.9,inactive
UBTD1 (GeneID 80019),3,0.191,85.7,0.0268,95.1,inactive
ERAP2 (GeneID 64167),1,1.22,106,1.77,74.4,inactive
ERAP2 (GeneID 64167),2,-0.465,72.6,-0.622,95.6,inactive
ERAP2 (GeneID 64167),3,1.45,111,0.336,113,inactive
APCDD1L-DT (GeneID 149773),1,-0.396,74,-0.708,99.6,inactive
APCDD1L-DT (GeneID 149773),2,2.64,134,3.2,64.6,inactive
APCDD1L-DT (GeneID 149773),3,-0.85,65,-0.988,94.2,inactive
QDPR (GeneID 5860),1,-1.08,60.5,-1.35,96.4,inactive
QDPR (GeneID 5860),2,4.61,174,2.43,102,active
QDPR (GeneID 5860),3,0.15,84.9,0.345,86.6,inactive

In a second layout: entries from further up.
{"target":"VSTM1 (GeneID 284415)","siRNA no.":2,"total luciferase, z-score":0.401,"total luciferase, % of control":89.9,"luciferase per cell, z-score":0.395,"viable cells, % of control":90.5,"Outcome":"inactive"}
{"target":"VSTM1 (GeneID 284415)","siRNA no.":3,"total luciferase, z-score":-1.48,"total luciferase, % of control":52.5,"luciferase per cell, z-score":-1.23,"viable cells, % of control":81.1,"Outcome":"inactive"}
{"target":"MASP2 (GeneID 10747)","siRNA no.":1,"total luciferase, z-score":2.07,"total luciferase, % of control":123,"luciferase per cell, z-score":1.51,"viable cells, % of control":92.5,"Outcome":"inactive"}
{"target":"MASP2 (GeneID 10747)","siRNA no.":2,"total luciferase, z-score":-1.35,"total luciferase, % of control":55,"luciferase per cell, z-score":-1.37,"viable cells, % of control":88.1,"Outcome":"inactive"}
{"target":"MASP2 (GeneID 10747)","siRNA no.":3,"total luciferase, z-score":0.0686,"total luciferase, % of control":83.3,"luciferase per cell, z-score":-0.523,"viable cells, % of control":107,"Outcome":"inactive"}

The results go on:
target,siRNA no.,"total luciferase, z-score","total luciferase, % of control","luciferase per cell, z-score","viable cells, % of control",Outcome
IFNA8 (GeneID 3445),1,-1.57,50.7,-1.12,76.2,inactive
IFNA8 (GeneID 3445),2,2.78,137,1.73,97.2,inactive
IFNA8 (GeneID 3445),3,1.16,105,2.27,64.5,inactive
TXNDC17 (GeneID 84817),1,1.85,119,2.04,77.5,inactive
TXNDC17 (GeneID 84817),2,0.548,92.8,0.113,101,inactive
TXNDC17 (GeneID 84817),3,1.4,110,1.22,88.9,inactive
RPL6P1 (GeneID 440587),1,0.56,93,0.312,95.8,inactive
RPL6P1 (GeneID 440587),2,0.959,101,1.01,86.4,inactive
RPL6P1 (GeneID 440587),3,0.611,94,0.822,84.6,inactive
LINC00312 (GeneID 29931),1,0.00519,82,0.49,80.5,inactive
LINC00312 (GeneID 29931),2,1.04,103,0.833,92.1,inactive
LINC00312 (GeneID 29931),3,1.07,103,1.47,78.2,inactive
AGFG1 (GeneID 3267),1,0.106,84,-0.338,103,inactive
AGFG1 (GeneID 3267),2,-0.548,71,-1.04,104,inactive
AGFG1 (GeneID 3267),3,0.479,91.4,1.12,76.1,inactive
